Test [1] deals with N508I mutant canine KIT (canine) (UniProt O97799). In words: cross-linking; intact IC-2 subline cells in PBS with 1 mg/mL BSA, 90 min at 4°C with recombinant canine SCF (10 ng/mL; a dose series for IC-2^WT), washed, then 1 mM BS3 for 30 min at 22°C in PBS; lysates blotted for KIT.
Test [2] has the same target. In words: cross-linking; intact IC-2 subline cells without SCF, 1 mM BS3 for 30 min at 22°C in PBS; lysates blotted for KIT; in some experiments IC-2^N508I cells were treated for 4 h with STI571 or AMN107 before BS3.
Test [3] deals with wild-type canine KIT (canine) (UniProt O97799). In words: cross-linking; intact IC-2 subline cells in PBS with 1 mg/mL BSA, 90 min at 4°C with recombinant canine SCF (10 ng/mL; a dose series for IC-2^WT), washed, then 1 mM BS3 for 30 min at 22°C in PBS; lysates blotted for KIT.
For test [4] the target is unchanged. In words: cross-linking; intact IC-2 subline cells without SCF, 1 mM BS3 for 30 min at 22°C in PBS; lysates blotted for KIT; in some experiments IC-2^N508I cells were treated for 4 h with STI571 or AMN107 before BS3.

By UniProt entry, the sequences of proteins in these tests, tags left out. Where a name states a change or a piece, a line headed by the entry shows the natural chain unless it says otherwise. Chains listed by the source or under a name are the forms on record and can include a tag or linker. Residues count along the entry.
wild-type canine KIT (O97799, residues 28-979): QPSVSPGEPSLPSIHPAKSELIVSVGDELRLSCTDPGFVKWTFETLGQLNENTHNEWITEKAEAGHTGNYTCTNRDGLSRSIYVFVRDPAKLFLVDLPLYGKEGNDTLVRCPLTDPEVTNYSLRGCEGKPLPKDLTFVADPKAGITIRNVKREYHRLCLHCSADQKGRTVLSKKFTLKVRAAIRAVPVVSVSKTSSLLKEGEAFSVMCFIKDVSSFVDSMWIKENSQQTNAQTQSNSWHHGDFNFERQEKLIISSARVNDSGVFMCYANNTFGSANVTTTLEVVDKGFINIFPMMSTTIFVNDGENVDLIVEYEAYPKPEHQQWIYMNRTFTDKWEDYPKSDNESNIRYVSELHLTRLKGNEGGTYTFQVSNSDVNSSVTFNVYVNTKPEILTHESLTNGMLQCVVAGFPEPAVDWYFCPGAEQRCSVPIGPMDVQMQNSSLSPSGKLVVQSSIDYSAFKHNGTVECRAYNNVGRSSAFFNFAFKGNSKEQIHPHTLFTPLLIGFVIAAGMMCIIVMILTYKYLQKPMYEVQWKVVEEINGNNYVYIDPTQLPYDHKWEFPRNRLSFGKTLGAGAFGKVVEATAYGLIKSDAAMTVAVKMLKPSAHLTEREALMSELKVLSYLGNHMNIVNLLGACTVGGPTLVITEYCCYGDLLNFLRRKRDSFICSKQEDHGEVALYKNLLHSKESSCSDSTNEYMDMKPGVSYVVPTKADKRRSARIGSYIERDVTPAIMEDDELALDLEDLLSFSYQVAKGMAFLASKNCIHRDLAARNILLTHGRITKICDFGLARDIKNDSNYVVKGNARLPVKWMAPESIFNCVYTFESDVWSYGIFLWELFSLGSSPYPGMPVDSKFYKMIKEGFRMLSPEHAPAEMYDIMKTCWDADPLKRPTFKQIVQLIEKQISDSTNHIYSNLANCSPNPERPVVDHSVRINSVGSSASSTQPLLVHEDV
N508I mutant canine KIT (O97799, form named): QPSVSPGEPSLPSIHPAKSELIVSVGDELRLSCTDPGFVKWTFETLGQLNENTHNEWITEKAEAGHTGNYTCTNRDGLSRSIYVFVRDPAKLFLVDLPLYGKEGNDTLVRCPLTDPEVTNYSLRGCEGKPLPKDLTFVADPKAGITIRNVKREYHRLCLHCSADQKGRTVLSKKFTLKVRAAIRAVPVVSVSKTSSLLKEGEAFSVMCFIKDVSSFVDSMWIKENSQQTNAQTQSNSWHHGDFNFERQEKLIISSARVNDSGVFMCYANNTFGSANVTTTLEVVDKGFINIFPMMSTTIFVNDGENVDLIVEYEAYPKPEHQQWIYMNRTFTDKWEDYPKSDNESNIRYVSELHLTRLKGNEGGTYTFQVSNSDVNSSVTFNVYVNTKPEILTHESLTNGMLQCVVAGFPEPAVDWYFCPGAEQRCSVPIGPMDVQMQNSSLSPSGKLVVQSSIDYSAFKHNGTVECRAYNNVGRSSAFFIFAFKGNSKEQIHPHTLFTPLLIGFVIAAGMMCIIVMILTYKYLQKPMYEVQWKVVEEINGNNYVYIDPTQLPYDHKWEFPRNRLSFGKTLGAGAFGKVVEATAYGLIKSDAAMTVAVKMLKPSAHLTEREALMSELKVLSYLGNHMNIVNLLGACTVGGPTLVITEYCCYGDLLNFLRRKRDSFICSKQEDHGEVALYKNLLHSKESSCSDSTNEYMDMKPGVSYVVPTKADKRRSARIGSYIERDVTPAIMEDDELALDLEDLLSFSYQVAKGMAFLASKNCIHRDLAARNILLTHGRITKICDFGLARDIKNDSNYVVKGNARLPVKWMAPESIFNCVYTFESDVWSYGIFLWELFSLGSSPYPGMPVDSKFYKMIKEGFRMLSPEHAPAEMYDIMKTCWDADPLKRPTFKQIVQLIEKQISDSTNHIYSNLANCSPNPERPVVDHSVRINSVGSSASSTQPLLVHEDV

Here are results for two substances from article PMC4428273.

No constants are given. Whether binding was seen depends on the method and setting. In cells and extracts the contact can be indirect. Some results given as binding are weak or reduced against the parent protein; the word gives no strength.

Consider “N508I mutant canine KIT (from UniProt O97799 28-979) (receptor)”, for which the binding result in test [1] and in test [2] was “binds” in each case.
On to “wild-type canine KIT (from UniProt O97799 28-979) (receptor)”, for which the binding result in test [3] was “binds”; in test [4] it was “binds weakly”.
